Measured values published in paper PMC12207404, “Significance of the CTP-binding motif for the interactions of S. coelicolor ParB with DNA, chromosome segregation, and sporogenic hyphal growth” (Nucleic Acids Research, 2025).
No constants are given. Whether binding was seen depends on the method and setting. Some binding calls cover weakened binding; strength is not graded here. Where a sequence is shown, tags or fusion partners need not be part of it.

Molecular target: S. coelicolor ParB (ScParB), wild type, bacterial two-hybrid fusion (S. coelicolor) (UniProt Q9RFM2)
Assay: two-hybrid; bacterial two-hybrid (BACTH): pUT18C and pKT25 derivatives cotransformed into E. coli BTH101; blue colonies on LB agar with X-gal and 0.5 mM IPTG, 30°C, and β-galactosidase activity (Miller units)

B1: S. coelicolor ParB (ScParB), wild type, bacterial two-hybrid fusion (protein, UniProt Q9RFM2 1-368)
chain: MSERRRGLGRGLGALIPNAPTEKSVASAALGSAASAAPGAMPLLPNERGVAAAKVATLQHVSRETEELTAPQGVEGLRPPMGAHFAEVPLDAITPNPKQPRKDFDDDALAELVTSIREVGLLQPVVVRPTEPGRYELIMGERRFRACRELELDAIPAIVRATEDEKLLLDALLENLHRAQLNPLEEAFAYDQLLKDFNCTHDQLADRIGRSRPQVSNTLRLLKLSPKVQNRVAAGVLSAGHARALLSVDDPEEQDRLAHRIVAEGLSVRSVEEIVTLMGSRPQKPQRAKGPRAGSLVSPALSDLATRLSDRFETRVKVDLGQKKGKITVEFASMDDLERILGSLAPGEGPVLQKGLLEGEDEDGDAES
binding: binds
